Source: patent US20260167727A1 (FIBRO BIOMED TECHNOLOGY GUANGZHOU, published 2026)
No constants are given. Whether binding was seen depends on the method and setting. Some entries that bind do so weakly or less than the wild type.

What was measured:
[1] = target: T1, DDR2 antigen overexpressed on cells (UniProt Q16832); test: immunofluorescence on fixed cells overexpressing DDR2, Anti His AF488 secondary antibody
T1 sequence (looked up): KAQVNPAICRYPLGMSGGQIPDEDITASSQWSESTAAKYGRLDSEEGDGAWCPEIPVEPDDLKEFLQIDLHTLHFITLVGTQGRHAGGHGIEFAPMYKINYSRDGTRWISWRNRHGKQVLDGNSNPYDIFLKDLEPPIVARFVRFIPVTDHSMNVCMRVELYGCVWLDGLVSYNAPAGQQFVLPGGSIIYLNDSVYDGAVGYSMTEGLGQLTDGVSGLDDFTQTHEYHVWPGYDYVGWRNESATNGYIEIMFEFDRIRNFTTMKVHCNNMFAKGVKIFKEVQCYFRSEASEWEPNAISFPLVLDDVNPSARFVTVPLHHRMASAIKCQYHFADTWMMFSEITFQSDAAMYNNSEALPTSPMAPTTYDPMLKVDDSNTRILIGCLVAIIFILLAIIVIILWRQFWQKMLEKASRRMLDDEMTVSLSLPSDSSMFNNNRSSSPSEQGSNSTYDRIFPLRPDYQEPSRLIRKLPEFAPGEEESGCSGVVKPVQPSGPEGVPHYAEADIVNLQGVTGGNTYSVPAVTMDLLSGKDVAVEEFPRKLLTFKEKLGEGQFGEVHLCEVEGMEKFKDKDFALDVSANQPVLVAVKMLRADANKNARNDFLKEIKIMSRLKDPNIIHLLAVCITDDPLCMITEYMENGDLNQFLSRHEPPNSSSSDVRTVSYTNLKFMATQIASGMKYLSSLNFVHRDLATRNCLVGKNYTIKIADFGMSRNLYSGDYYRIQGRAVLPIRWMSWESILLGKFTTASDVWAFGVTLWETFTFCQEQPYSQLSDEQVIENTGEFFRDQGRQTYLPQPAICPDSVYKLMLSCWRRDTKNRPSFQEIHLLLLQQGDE

[2] = target: T2, human DDR2 extracellular segment (human, UniProt Q16832 22-399); test: ELISA, DDR2 extracellular segment coated 100 ng/well, Flag-tagged nano-antibody 200 ng/well, anti-Flag detection
T2 construct: range 22-399; In BLI it carried a His tag (printed 'Hig tag') and was captured on Ni-NTA; also called extracellular segment of DDR2 antigen; extracellular segment protein of DDR2 antigen
T2 sequence (looked up): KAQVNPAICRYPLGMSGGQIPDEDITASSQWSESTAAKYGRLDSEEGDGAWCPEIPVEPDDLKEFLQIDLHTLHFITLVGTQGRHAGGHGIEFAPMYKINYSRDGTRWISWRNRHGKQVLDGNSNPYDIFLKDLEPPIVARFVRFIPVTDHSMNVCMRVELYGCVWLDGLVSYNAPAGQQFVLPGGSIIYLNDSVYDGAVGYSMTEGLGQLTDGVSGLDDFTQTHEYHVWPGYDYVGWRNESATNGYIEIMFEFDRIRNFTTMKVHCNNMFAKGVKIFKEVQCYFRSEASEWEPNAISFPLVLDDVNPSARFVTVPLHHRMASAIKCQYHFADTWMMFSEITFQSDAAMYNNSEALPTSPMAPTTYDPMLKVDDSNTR

[3] = target: T1, DDR2 antigen overexpressed on cells; test: immunofluorescence on fixed cells overexpressing DDR2, anti-His AF488 secondary, DAPI
[4] = target: T2, human DDR2 extracellular segment; test: ELISA, plate coated with DDR2 extracellular segment, Flag-tagged nano-antibody titrated, anti-Flag then HRP secondary, TMB, OD450
[5] = target: T2, human DDR2 extracellular segment; test: ELISA at one antibody amount, wells coated with antigen-DDR2 or BSA, OD450
[6] = target: T2, human DDR2 extracellular segment; test: ELISA, DDR2 extracellular segment coated, Flag-tagged nano-antibody
[7] = target: T1, DDR2 antigen overexpressed on cells; test: flow cytometry on A549 cells overexpressing DDR2, His-tagged nano-antibody, anti-His-AF488 secondary
[8] = target: T2, human DDR2 extracellular segment; test: BLI (ForteBio), His-tagged DDR2 extracellular segment on Ni-NTA sensor, nano-antibody in solution
[9] = target: T1, DDR2 antigen overexpressed on cells; test: flow cytometry, A549 cells infected with adenovirus overexpressing DDR2, His-tagged nano-antibody, Anti-His-AF488
[10] = target: pig DDR2 in lung tissue (pig); test: near-infrared imaging of pig lung tissue slices induced with bleomycin and stained with ICG labeled 1A12
[11] = target: pig DDR2 in lung tissue (pig); test: near-infrared imaging of bleomycin-induced pig lung tissue slices stained with ICG labeled 1A12

Measured: binding

B1: anti-DDR2 nano-antibody 1A1 (VHH)
VHH: EVQLVESGGGLVQPGGSLRLSCAASGRIFSINVMGWFRQAPGKGRELVAAINTRGGSTYYPDSVEGRFTISRDNAKRMVYLQMNSLRAEDTAVYYCAASRKGYPSTRSDPYDYWGQGTQVTVSS
notes: Expressed in E. coli BL21(DE3); also called 1A1-VHH
not listed: [10] | [11]
binds: all other assays above

B2: anti-DDR2 nano-antibody 1A12 (VHH)
VHH: EVQLVESGGGLVQPGGSLRLSCAASGYILSPNVMGWFRQAPGKGRELVAAISWGDGRTYYPDSVEGRFTISRDNAKRMVYLQMNSLRAEDTAVYYCAASRKGYPSTRSDPYNYWGQGTQVTVSS
notes: also called 1A12-VHH; DDR2 antibody 1A12
not listed: [10] | [11]
binds: all other assays above

B3: anti-DDR2 nano-antibody 1A5 (VHH)
VHH: EVQLVESGGGLVQPGGSLRLSCAASGITLSLYIMGWFRQAPGKGRELVAAISRTGGSTYYPDSVEGRFTISRDNAKRMVYLQMNSLRAEDTAVYYCAADFYGNATLGYNYWGQGTQVTVSS
notes: also called 1A5-VHH
not listed: [7] | [10] | [11]
binds: all other assays above

B4: anti-DDR2 nano-antibody 1B3 (VHH)
VHH: EVQLVESGGGLVQPGGSLRLSCAASGDTFSYYVMGWFRQAPGKGRELVAAISRTGGSTYYPDSVEGRFTISRDNAKRMVYLQMNSLRAEDTAVYYCAADPYISGTLGYNYWGQGTQVTVSS
notes: also called 1B3-VHH
not listed: [3] | [7] | [10] | [11]
binds: all other assays above

B5: anti-DDR2 nano-antibody 1B2 (VHH)
VHH: EVQLVESGGGLVQPGGSLRLSCAASGYIFSIYAMGWFRQAPGKGRELVARISWGDGSTWYPDSVEGRFTISRDNAKRMVYLQMNSLRAEDTAVYYCAAAIKGRGVVTQLGYNYWGQGTQVTVSS
notes: also called 1B2-VHH
not listed: [3] | [10] | [11]
binds: all other assays above

B6: ICG labeled DDR2 nano-antibody 1A12 (VHH)
VHH: EVQLVESGGGLVQPGGSLRLSCAASGYILSPNVMGWFRQAPGKGRELVAAISWGDGRTYYPDSVEGRFTISRDNAKRMVYLQMNSLRAEDTAVYYCAASRKGYPSTRSDPYNYWGQGTQVTVSS
modifications: indocyanine green (ICG) coupled with ICG-NHS; sites not stated
notes: also called ICG labeled 1A12 nano-antibody; Nb-DDR2 labeled with indocyanine green
binds: [10] | [11]
